Results on two molecules are retold here after doi:10.1101/055285.

Sequences of proteins named here, by UniProt entry; tags and fusion partners are left off.
UniProt Q00610: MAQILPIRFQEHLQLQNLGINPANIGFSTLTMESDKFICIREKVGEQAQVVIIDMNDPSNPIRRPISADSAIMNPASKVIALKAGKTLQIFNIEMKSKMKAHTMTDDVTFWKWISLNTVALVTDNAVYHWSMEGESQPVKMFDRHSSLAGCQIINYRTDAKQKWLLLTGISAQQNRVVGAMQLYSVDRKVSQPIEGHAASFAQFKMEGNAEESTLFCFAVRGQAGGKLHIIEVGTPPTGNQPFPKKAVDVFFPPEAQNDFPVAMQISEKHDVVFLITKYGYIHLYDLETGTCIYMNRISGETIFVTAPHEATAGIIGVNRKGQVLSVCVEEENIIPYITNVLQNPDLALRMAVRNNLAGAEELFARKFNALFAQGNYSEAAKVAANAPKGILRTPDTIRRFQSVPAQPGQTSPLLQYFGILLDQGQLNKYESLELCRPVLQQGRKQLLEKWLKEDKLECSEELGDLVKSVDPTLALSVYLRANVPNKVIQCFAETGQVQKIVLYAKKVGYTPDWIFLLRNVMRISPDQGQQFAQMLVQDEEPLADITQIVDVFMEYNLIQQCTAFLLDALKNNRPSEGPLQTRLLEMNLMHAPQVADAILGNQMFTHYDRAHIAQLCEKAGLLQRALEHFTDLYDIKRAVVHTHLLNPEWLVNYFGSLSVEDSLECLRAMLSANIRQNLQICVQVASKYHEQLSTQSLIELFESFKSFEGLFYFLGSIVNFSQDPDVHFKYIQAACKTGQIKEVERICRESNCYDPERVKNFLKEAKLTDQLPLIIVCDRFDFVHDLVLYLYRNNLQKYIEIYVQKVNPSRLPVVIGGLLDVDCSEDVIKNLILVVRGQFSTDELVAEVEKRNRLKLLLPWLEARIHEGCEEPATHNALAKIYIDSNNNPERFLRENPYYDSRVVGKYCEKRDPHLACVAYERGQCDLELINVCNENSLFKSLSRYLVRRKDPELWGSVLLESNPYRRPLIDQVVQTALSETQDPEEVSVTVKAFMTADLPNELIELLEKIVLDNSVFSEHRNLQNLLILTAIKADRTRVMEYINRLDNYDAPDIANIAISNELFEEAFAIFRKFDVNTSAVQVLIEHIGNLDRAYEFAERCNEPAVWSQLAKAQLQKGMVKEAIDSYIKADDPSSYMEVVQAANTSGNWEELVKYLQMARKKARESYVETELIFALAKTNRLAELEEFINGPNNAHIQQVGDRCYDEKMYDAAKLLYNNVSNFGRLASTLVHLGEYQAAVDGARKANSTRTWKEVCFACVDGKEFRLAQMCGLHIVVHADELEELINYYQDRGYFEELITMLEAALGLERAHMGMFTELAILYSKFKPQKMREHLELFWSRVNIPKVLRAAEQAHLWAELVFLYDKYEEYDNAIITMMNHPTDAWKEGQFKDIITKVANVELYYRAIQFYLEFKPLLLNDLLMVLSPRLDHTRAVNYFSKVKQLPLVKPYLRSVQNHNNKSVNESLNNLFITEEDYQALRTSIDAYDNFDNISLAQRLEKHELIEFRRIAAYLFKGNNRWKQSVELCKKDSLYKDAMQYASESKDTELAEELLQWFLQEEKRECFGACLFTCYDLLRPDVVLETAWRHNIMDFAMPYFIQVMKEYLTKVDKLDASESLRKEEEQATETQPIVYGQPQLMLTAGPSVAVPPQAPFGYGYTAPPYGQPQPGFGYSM

Results are given in words; binding and its absence hold for the method and conditions named. In cells and extracts the contact can be indirect. Some binding calls cover weakened binding; strength is not graded here. Tags and fused reporters may be left off the sequences shown.

Assay [1] addresses T1, CLTA (clathrin light chain A), taken as the GFP11-tagged bait of the clathrin pull-down (human) (UniProt P09496).
T1 sequence: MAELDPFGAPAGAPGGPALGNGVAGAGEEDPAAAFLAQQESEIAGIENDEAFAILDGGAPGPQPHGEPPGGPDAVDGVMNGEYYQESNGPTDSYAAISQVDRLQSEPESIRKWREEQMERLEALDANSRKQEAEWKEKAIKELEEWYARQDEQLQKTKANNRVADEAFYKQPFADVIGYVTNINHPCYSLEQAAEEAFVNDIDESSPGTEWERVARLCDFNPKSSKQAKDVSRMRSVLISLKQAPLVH
The assay can be described thus: co-IP.

Assay [2] addresses T2, SPTLC1, taken as the GFP11-tagged bait of the SPOTS pull-down (human) (UniProt O15269).
T2 sequence: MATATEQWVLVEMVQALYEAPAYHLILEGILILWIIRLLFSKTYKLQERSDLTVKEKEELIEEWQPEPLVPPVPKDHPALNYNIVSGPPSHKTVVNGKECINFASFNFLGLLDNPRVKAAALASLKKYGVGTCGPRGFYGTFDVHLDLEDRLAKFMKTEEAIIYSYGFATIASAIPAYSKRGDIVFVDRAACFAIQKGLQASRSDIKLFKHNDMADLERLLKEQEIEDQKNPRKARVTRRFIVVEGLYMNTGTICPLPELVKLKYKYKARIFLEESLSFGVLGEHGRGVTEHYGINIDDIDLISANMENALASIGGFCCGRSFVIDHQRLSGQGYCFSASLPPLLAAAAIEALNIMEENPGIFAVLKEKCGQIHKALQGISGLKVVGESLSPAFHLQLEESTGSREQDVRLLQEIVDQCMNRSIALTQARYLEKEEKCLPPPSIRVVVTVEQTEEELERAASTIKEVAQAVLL
The assay is described as follows: co-IP.

In the case of CLTC (from UniProt Q00610 1-1675), in assay [1], the binding result was “binds”.

B1: SPTLC2 (protein, UniProt O15270 1-562)
chain: MRPEPGGCCCRRTVRANGCVANGEVRNGYVRSSAAAAAAAAAGQIHHVTQNGGLYKRPFNEAFEETPMLVAVLTYVGYGVLTLFGYLRDFLRYWRIEKCHHATEREEQKDFVSLYQDFENFYTRNLYMRIRDNWNRPICSVPGARVDIMERQSHDYNWSFKYTGNIIKGVINMGSYNYLGFARNTGSCQEAAAKVLEEYGAGVCSTRQEIGNLDKHEELEELVARFLGVEAAMAYGMGFATNSMNIPALVGKGCLILSDELNHASLVLGARLSGATIRIFKHNNMQSLEKLLKDAIVYGQPRTRRPWKKILILVEGIYSMEGSIVRLPEVIALKKKYKAYLYLDEAHSIGALGPTGRGVVEYFGLDPEDVDVMMGTFTKSFGASGGYIGGKKELIDYLRTHSHSAVYATSLSPPVVEQIITSMKCIMGQDGTSLGKECVQQLAENTRYFRRRLKEMGFIIYGNEDSPVVPLMLYMPAKIGAFGREMLKRNIGVVVVGFPATPIIESRARFCLSAAHTKEILDTALKEIDEVGDLLQLKYSRHRLVPLLDRPFDETTYEETED
For the molecule B1, in assay [2], the binding result is given as “binds”.
